These are yes or no findings as the source states them, for the method shown. A result given as binding can be weak or reduced; the word gives no strength. For part of these data: In cells and extracts the contact can be indirect.
Columns and labels:
[1] = target: EhDrpB-HA (Entamoeba histolytica) (UniProt C4M3R5); experiment: co-IP; whole cell lysates (1 mg protein) of EhDrpA-HA and EhDrpB-HA strains; 50 mM Tris-HCl/150 mM NaCl/1% Triton X-100 pH 7.4; Protein G magnetic beads with anti-HA, anti-DrpA or anti-DrpB antibodies overnight at 4 °C; immunoblot
[2] = target: EhDrpA (endogenous) (Entamoeba histolytica (endogenous in trophozoites)) (UniProt C4LX84); experiment: native gel or EMSA; blue native PAGE of whole cell lysates of DrpAgs, DrpBgs and control strains, solubilized by 1% digitonin at 4 °C; immunoblot with anti-DrpA and anti-DrpB antibodies
[3] = target: EhDrpA-HA (Entamoeba histolytica) (UniProt C4LX84); experiment: co-IP; whole cell lysates (1 mg protein) of EhDrpA-HA and EhDrpB-HA strains; 50 mM Tris-HCl/150 mM NaCl/1% Triton X-100 pH 7.4; Protein G magnetic beads with anti-HA, anti-DrpA or anti-DrpB antibodies overnight at 4 °C; immunoblot

Chains of the proteins cited; added tags and fusions are not shown. Lines headed by an entry give the natural chain unless they say otherwise; changes in a name come on top.
UniProt C4M3R5: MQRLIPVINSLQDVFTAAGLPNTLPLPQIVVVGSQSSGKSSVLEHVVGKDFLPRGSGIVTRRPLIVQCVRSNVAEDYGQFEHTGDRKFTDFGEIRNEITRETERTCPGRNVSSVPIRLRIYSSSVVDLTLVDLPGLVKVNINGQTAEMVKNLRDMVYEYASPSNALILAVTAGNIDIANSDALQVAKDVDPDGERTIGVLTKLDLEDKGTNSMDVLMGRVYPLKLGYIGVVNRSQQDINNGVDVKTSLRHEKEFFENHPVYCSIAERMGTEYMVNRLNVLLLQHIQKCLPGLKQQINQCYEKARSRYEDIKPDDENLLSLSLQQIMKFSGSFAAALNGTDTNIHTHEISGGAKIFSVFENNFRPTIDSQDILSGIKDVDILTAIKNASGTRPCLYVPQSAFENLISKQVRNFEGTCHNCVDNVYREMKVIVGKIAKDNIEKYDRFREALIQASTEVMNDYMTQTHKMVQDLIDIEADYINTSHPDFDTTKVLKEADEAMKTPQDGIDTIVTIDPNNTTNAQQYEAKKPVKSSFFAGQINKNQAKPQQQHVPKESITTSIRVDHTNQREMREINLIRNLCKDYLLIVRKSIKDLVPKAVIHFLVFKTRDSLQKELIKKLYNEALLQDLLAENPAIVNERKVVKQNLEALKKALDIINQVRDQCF
UniProt C4LX84: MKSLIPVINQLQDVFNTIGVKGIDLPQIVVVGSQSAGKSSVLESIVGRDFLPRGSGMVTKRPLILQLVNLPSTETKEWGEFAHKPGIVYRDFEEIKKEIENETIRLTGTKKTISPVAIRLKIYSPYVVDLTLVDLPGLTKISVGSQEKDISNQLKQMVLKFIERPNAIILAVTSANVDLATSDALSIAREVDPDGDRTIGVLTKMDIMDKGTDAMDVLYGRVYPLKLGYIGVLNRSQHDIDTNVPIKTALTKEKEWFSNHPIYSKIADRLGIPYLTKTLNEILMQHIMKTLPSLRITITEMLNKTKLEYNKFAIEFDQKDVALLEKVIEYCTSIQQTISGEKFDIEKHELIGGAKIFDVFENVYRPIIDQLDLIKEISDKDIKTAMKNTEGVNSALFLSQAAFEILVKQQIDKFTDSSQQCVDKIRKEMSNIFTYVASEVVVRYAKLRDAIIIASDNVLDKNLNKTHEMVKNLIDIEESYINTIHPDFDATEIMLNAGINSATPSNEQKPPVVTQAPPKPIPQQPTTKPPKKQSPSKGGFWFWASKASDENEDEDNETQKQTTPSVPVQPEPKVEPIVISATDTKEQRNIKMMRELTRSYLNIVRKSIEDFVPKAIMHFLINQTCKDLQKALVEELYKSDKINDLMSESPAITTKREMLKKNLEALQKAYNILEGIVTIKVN

Row | binding [1] | binding [2] | binding [3] | Substance
1 | binds |  |  | EhDrpA (endogenous) (from UniProt C4LX84)
2 |  | binds | binds | EhDrpB (endogenous) (from UniProt C4M3R5)

Reference: paper PMC5647421, “Hetero-oligomer of dynamin-related proteins participates in the fission of highly divergent mitochondria from Entamoeba histolytica” (Scientific Reports, 2017)
